In patent EP4755403A1, “ANTI-PSMA ANTIBODY-DRUG CONJUGATE AND PHARMACEUTICAL USE THEREOF” (priority 2023, dated 2025):
Results are given in words; binding and its absence hold for the method and conditions named. Some binding calls cover weakened binding; strength is not graded here.

Target: monkey PSMA-His (ACRO, PSA-C5247) (monkey (cynomolgus))
Assay: SPR (Biacore T200)

- binding: binds
B1: P19 (19L2H2) (antibody, human IgG1, kappa, V domains shown)
VH: EVKLVESGGGLVQPGGSLRLSCAASGFTFSDYYMAWVRQAPGKGLEWVANINYDGSSTYYLDSLKSRFTISRDNAKNSLYLQMNSLRAEDTAVYYCARGGDYWDAMDYWGQGTTVTVSS
VL: DIQMTQSPSSLSASVGDRVTITCRASQDISKYLNWYQQKPGKAPKLLIYYTSSLHSGVPSRFSGSGSGTDYTLTISSLQPEDFATYYCQQGNRLPRTFGGGTKVEIKR
